Assay results published in publication PMC9105102 (International Journal of Molecular Sciences, 2022).

Test: general procedure: Fmoc solid-phase peptide synthesis; Rink-Amide MBHA resin; DIC/HOBt; HATU/DIPEA for conjugation
Conditions: conjugation step; for final HPLC purity: 220 nm

**Q.** With “PEPTIDE1{[Glp].[D-Tic].[Lys(Bu)].H.D.W.K.P.G.[am]}|PEPTIDE2{[Glt].[diamine-PTX]}$PEPTIDE1,PEPTIDE2,7:R3-1:R3$$$V2.0” as the substance, how does the conjugation yield read?
**A.** Its conjugation yield is 65%.

**Q.** And the “final HPLC purity” value?
**A.** The value was at least 99%.

**Q.** With “PEPTIDE1{[Glp].H.W.[Lys(Bu)].H.D.W.K.P.G.[am]}|PEPTIDE2{[Glt].V.[Cit].[PABC-Dau]}$PEPTIDE1,PEPTIDE2,8:R3-1:R3$$$V2.0” as the substance, how does the conjugation yield read?
**A.** Its conjugation yield is 70%.

**Q.** What about the “final HPLC purity” value of the same substance?
**A.** Its value is at least 97%.

**Q.** Which conjugation yield does the source give for “PEPTIDE1{[Glp].H.W.[Lys(Bu)].H.D.W.K.P.G.[am]}|PEPTIDE2{[Glt].[diamine-PTX]}$PEPTIDE1,PEPTIDE2,8:R3-1:R3$$$V2.0” here?
**A.** Its conjugation yield is 53%.

**Q.** What about the “final HPLC purity” value of the same substance?
**A.** Its value is over 98%.

**Q.** With “PEPTIDE1{[Glp].H.W.[Lys(Bu)].H.D.W.K.P.G.[am]}|PEPTIDE2{[Glt].[Dau]}$PEPTIDE1,PEPTIDE2,8:R3-1:R3$$$V2.0” as the substance, how does the conjugation yield read?
**A.** Its conjugation yield is 52%.

**Q.** And the “final HPLC purity” value?
**A.** The value was at least 99%.

**Q.** What does the source list for “PEPTIDE1{[Glp].H.W.[Lys(Bu)].H.D.W.K.P.G.[am]}|PEPTIDE2{[Glt].V.A.[PABC-diamine-PTX]}$PEPTIDE1,PEPTIDE2,8:R3-1:R3$$$V2.0”?
**A.** conjugation yield: 80%; final HPLC purity: ≥98%

**Q.** Which results are given for “PEPTIDE1{[Glp].[D-Tic].[Lys(Bu)].H.D.W.K.P.G.[am]}|PEPTIDE2{[Glt].[Dau]}$PEPTIDE1,PEPTIDE2,7:R3-1:R3$$$V2.0”?
**A.** conjugation yield: 50%; final HPLC purity: ≥98%

**Q.** For “GnRH-III-[2ΔHis-3D-Tic,8Lys(glutaryl-Val-Cit-PABC-Dau)]”, which conjugation yield is on record?
**A.** The conjugation yield was 62%.

**Q.** And the “final HPLC purity” value?
**A.** The value was at least 98%.

**Q.** For “PEPTIDE1{[Glp].H.W.[Lys(Bu)].H.D.W.K.P.G.[am]}|PEPTIDE2{[Glt].V.A.[PABC-Dau]}$PEPTIDE1,PEPTIDE2,8:R3-1:R3$$$V2.0”, which conjugation yield is on record?
**A.** Its conjugation yield is 70%.

**Q.** What about the “final HPLC purity” value of the same substance?
**A.** Its value is over 99%.

**Q.** Which results are given for “PEPTIDE1{[Glp].H.W.[Lys(Bu)].H.D.W.K.P.G.[am]}|PEPTIDE2{[Glt].V.[Cit].[PABC-diamine-PTX]}$PEPTIDE1,PEPTIDE2,8:R3-1:R3$$$V2.0”?
**A.** conjugation yield: 84%; final HPLC purity: ≥99%

HELM strings list residues between dots; [ac] is acetyl, [am] amide, other brackets name non-standard units.
